Results: the supplement of paper PMC4604168 (melanoma cell lines)
Some of the results follow. Repeats are few or missing, and single values can be far off.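 Imaging used 1,536-well plates; nuclei positive for cleaved PARP by antibody were divided by total DNA-stained nuclei to yield the apoptosis fraction. Doses for screening kept most cells viable, and cell lines differ markedly in resting and induced cleaved-PARP levels.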

Experiments:
Experiment in all cases: cleaved PARP positive nuclei fraction relative to DMSO control; melanoma cells; higher = more apoptosis
Conditions in all cases: library dose: low library concentration; 72 h
MZ2-MEL = test system: MZ2-MEL
MeWo = test system: MeWo
RPMI7951 = test system: RPMI7951
RVH-421 = test system: RVH-421
SkMel28 = test system: SkMel28
SkMel2 = test system: SkMel2
SkMel30 = test system: SkMel30
UACC62 = test system: UACC62

Structure (SMILES) | cleaved PARP positive nuclei fraction (MZ2-MEL) [%] | cleaved PARP positive nuclei fraction (MeWo) [%] | cleaved PARP positive nuclei fraction (RPMI7951) [%] | cleaved PARP positive nuclei fraction (RVH-421) [%] | cleaved PARP positive nuclei fraction (SkMel28) [%] | cleaved PARP positive nuclei fraction (SkMel2) [%] | cleaved PARP positive nuclei fraction (SkMel30) [%] | cleaved PARP positive nuclei fraction (UACC62) [%]
Cn1cnc2c(F)c(Nc3ccc(Br)cc3Cl)c(C(=O)NOCCO)cc21 [selumetinib] + CS(=O)(=O)c1ccc(C(=O)Nc2ccc(Cl)c(-c3ccccn3)c2)c(Cl)c1 [vismodegib] (first compound 0.015 µM, partner dose 1 µM) | 137 | 77 | 164 | 183 | 144 | 195 | 306 | 183
CCCCCCCCc1ccc(CCC(N)(CO)CO)cc1 [fingolimod] + Cn1c(Nc2ccc(C(F)(F)F)cc2)nc2cc(Oc3ccnc(-c4ncc(C(F)(F)F)[nH]4)c3)ccc21 [CHIR265] (first compound 2 µM, partner dose 0.08 µM) | 65 | 248 | 353 | 305 | 68.8 |  | 112 | 739
NC1(c2ccc(-c3nc4ccn5c(=O)[nH]nc5c4cc3-c3ccccc3)cc2)CCC1 + COCC[n+]1c2c(n(Cc3cnccn3)c1C)C(=O)c1ccccc1C2=O [YM155] (first compound 0.4 µM, partner dose 0.0004 µM) | 275 | 135 | 134 | 48.2 | 119 | 106 | 230 | 82.7
C[C@]1(O)C[C@@H](c2nc(-c3ccc4ccc(-c5ccccc5)nc4c3)c3c(N)nccn32)C1 + CO[C@H]1C[C@@H]2CC[C@@H](C)[C@@](O)(O2)C(=O)C(=O)N2CCCC[C@H]2C(=O)O[C@H]([C@H](C)C[C@@H]2CC[C@@H](OCCO)[C@H](OC)C2)CC(=O)[C@H](C)/C=C(\C)[C@@H](O)[C@@H](OC)C(=O)[C@H](C)C[C@H](C)/C=C/C=C/C=C/1C [everolimus] (first compound 0.4 µM, partner dose 0.02 µM) | 425 | 62.5 | 82.8 | 76.5 | 287 |  | 193 | 991
Cn1sc(=O)n(Cc2ccccc2)c1=O + C#Cc1cccc(Nc2ncnc3cc(OCCOC)c(OCCOC)cc23)c1 [erlotinib] (first compound 0.4 µM, partner dose 0.8 µM) | 86.7 | 93.5 | 154 | 143 | 46.8 | 72.6 | 1140 | 51.3
Cn1cnc2c(F)c(Nc3ccc(Br)cc3Cl)c(C(=O)NOCCO)cc21 [selumetinib] + CO[C@H]1C[C@@H]2CC[C@@H](C)[C@@](O)(O2)C(=O)C(=O)N2CCCC[C@H]2C(=O)O[C@H]([C@H](C)C[C@@H]2CC[C@@H](OCCO)[C@H](OC)C2)CC(=O)[C@H](C)/C=C(\C)[C@@H](O)[C@@H](OC)C(=O)[C@H](C)C[C@H](C)/C=C/C=C/C=C/1C [everolimus] (first compound 0.015 µM, partner dose 0.02 µM) | 173 | 302 | 139 | 134 | 470 |  | 227 | 1470
C[C@]1(O)C[C@@H](c2nc(-c3ccc4ccc(-c5ccccc5)nc4c3)c3c(N)nccn32)C1 + CC(C)C[C@H](NC(=O)[C@H](Cc1ccccc1)NC(=O)c1cnccn1)B(O)O [Bortezomib] (first compound 0.4 µM, partner dose 0.001 µM) | 113 | 59.1 | 138 | 38.1 | 43.5 | 37.4 | 27.4 | 22.3
COc1ccc(C2=N[C@@H](c3ccc(Cl)cc3)[C@@H](c3ccc(Cl)cc3)N2C(=O)N2CCNC(=O)C2)c(OC(C)C)c1 [Nutlin-3] + Cn1c(Nc2ccc(C(F)(F)F)cc2)nc2cc(Oc3ccnc(-c4ncc(C(F)(F)F)[nH]4)c3)ccc21 [CHIR265] (first compound 0.1 µM, partner dose 0.08 µM) | 31.8 | 266 | 202 | 137 | 259 | 247 | 124 | 241
NC(=O)c1ccc(N(C(N)=O)c2c(F)cccc2F)nc1-c1ccc(F)cc1F + C[C@@H](Oc1cc(-c2cnn(C3CCNCC3)c2)cnc1N)c1c(Cl)ccc(F)c1Cl [Crizotinib] (first compound 0.4 µM, partner dose 0.2 µM) | 111 | 96.3 | 84 | 226 | 96 | 29.1 | 58 | 88.7
CC1(C)CCC(c2ccc(Cl)cc2)=C(CN2CCN(c3ccc(C(=O)NS(=O)(=O)c4ccc(N[C@H](CCN5CCOCC5)CSc5ccccc5)c(S(=O)(=O)C(F)(F)F)c4)cc3)CC2)C1 + CCCCCCCCc1ccc(CCC(N)(CO)CO)cc1 [fingolimod] (first compound 0.4 µM, partner dose 2 µM) | 243 | 681 | 196 | 674 | 84.2 | 101 | 97.5 | 129
NC(=O)c1ccc(N(C(N)=O)c2c(F)cccc2F)nc1-c1ccc(F)cc1F + Nc1nc(F)nc2c1ncn2[C@@H]1O[C@H](CO)[C@@H](O)[C@@H]1O [fludarabine] (first compound 0.4 µM, partner dose 0.2 µM) | 97.4 | 400 | 160 | 85.3 | 137 | 726 | 1770 | 281
C[C@]1(O)C[C@@H](c2nc(-c3ccc4ccc(-c5ccccc5)nc4c3)c3c(N)nccn32)C1 + CN1CCN(c2ccc3nc(-c4c(N)c5c(F)cccc5[nH]c4=O)[nH]c3c2)CC1 [Dovitinib] (first compound 0.4 µM, partner dose 0.1 µM) | 73.3 | 79.4 | 92.9 | 78.7 | 189 | 101 | 55 | 244
Cn1cnc2c(F)c(Nc3ccc(Br)cc3Cl)c(C(=O)NOCCO)cc21 [selumetinib] + COc1ccc(Cl)c(Nc2nc3ccccc3nc2NS(=O)(=O)c2cccc(NC(=O)C(C)(C)N)c2)c1 [XL147] (first compound 0.015 µM, partner dose 0.8 µM) | 158 | 95.1 | 27.2 | 63.1 | 358 | 78.1 | 60.5 | 367
NC1(c2ccc(-c3nc4ccn5c(=O)[nH]nc5c4cc3-c3ccccc3)cc2)CCC1 + CC(C)C[C@H](NC(=O)[C@H](Cc1ccccc1)NC(=O)c1cnccn1)B(O)O [Bortezomib] (first compound 0.4 µM, partner dose 0.001 µM) | 122 | 24.2 | 141 | 195 | 65.2 | 81.3 | 277 | 226
CC1(C)CCC(c2ccc(Cl)cc2)=C(CN2CCN(c3ccc(C(=O)NS(=O)(=O)c4ccc(N[C@H](CCN5CCOCC5)CSc5ccccc5)c(S(=O)(=O)C(F)(F)F)c4)cc3)CC2)C1 + OCc1c[nH]c2ccccc12 [Indole-3-carbinol] (first compound 0.4 µM, partner dose 0.8 µM) | 222 | 567 | 86.5 | 27.4 | 46.2 | 113 | 85.4 | 83.5
CS(=O)(=O)c1ccc(C(=O)Nc2ccc(Cl)c(-c3ccccn3)c2)c(Cl)c1 [vismodegib] + Nc1cccc2c1CN(C1CCC(=O)NC1=O)C2=O [lenalidomide] (first compound 1 µM, partner dose 1 µM) | 123 | 89.5 | 83.5 | 37.8 | 40.5 |  | 29.8 | 193
CCCCCCCCc1ccc(CCC(N)(CO)CO)cc1 [fingolimod] + CCCS(=O)(=O)Nc1ccc(F)c(C(=O)c2c[nH]c3ncc(Cl)cc23)c1F [PLX4720] (first compound 2 µM, partner dose 0.08 µM) | 207 | 53.4 | 155 | 152 | 104 | 71.2 | 115 | 259
CS(=O)(=O)c1ccc(C(=O)Nc2ccc(Cl)c(-c3ccccn3)c2)c(Cl)c1 [vismodegib] + Cn1nnc2c(C(N)=O)ncn2c1=O [temozolomide] (first compound 1 µM, partner dose 2 µM) | 30.9 | 73 | 123 | 92.6 | 78.4 | 90.5 | 106 | 210
Cn1cnc2c(F)c(Nc3ccc(Br)cc3Cl)c(C(=O)NOCCO)cc21 [selumetinib] + CN(c1ncccc1CNc1nc(Nc2ccc3c(c2)CC(=O)N3)ncc1C(F)(F)F)S(C)(=O)=O [PF562271] (first compound 0.015 µM, partner dose 0.08 µM) | 441 | 191 | 149 | 157 | 83.7 | 99.5 | 167 | 435
CC(=O)O[C@@]12CO[C@@H]1C[C@H](O)[C@@]1(C)C(=O)[C@H](O)C3=C(C)[C@@H](OC(=O)[C@H](O)[C@@H](NC(=O)OC(C)(C)C)c4ccccc4)C[C@@](O)([C@@H](OC(=O)c4ccccc4)[C@H]21)C3(C)C [Docetaxel] + CO[C@H]1C[C@@H]2CC[C@@H](C)[C@@](O)(O2)C(=O)C(=O)N2CCCC[C@H]2C(=O)O[C@H]([C@H](C)C[C@@H]2CC[C@@H](OCCO)[C@H](OC)C2)CC(=O)[C@H](C)/C=C(\C)[C@@H](O)[C@@H](OC)C(=O)[C@H](C)C[C@H](C)/C=C/C=C/C=C/1C [everolimus] (first compound 0.0001 µM, partner dose 0.02 µM) | 648 | 602 | 229 | 130 | 2180 |  | 729 | 1570
Cn1cnc2c(F)c(Nc3ccc(Br)cc3Cl)c(C(=O)NOCCO)cc21 [selumetinib] + Cn1c(=O)n(-c2ccc(C(C)(C)C#N)cc2)c2c3cc(-c4cnc5ccccc5c4)ccc3ncc21 [NVP-BEZ235] (first compound 0.015 µM, partner dose 0.004 µM) | 340 | 154 | 203 | 184 | 114 | 206 | 129 | 569
CC(=O)O[C@@]12CO[C@@H]1C[C@H](O)[C@@]1(C)C(=O)[C@H](O)C3=C(C)[C@@H](OC(=O)[C@H](O)[C@@H](NC(=O)OC(C)(C)C)c4ccccc4)C[C@@](O)([C@@H](OC(=O)c4ccccc4)[C@H]21)C3(C)C [Docetaxel] + C[C@]1(c2nc3c(C(N)=O)cccc3[nH]2)CCCN1 [Veliparib] (first compound 0.0001 µM, partner dose 1.4 µM) | 509 | 385 | 329 | 263 | 666 | 1480 | 428 | 677

2 entries from above, comma-delimited.
Structure (SMILES),cleaved PARP positive nuclei fraction (MZ2-MEL) [%],cleaved PARP positive nuclei fraction (MeWo) [%],cleaved PARP positive nuclei fraction (RPMI7951) [%],cleaved PARP positive nuclei fraction (RVH-421) [%],cleaved PARP positive nuclei fraction (SkMel28) [%],cleaved PARP positive nuclei fraction (SkMel2) [%],cleaved PARP positive nuclei fraction (SkMel30) [%],cleaved PARP positive nuclei fraction (UACC62) [%]
"CC(=O)O[C@@]12CO[C@@H]1C[C@H](O)[C@@]1(C)C(=O)[C@H](O)C3=C(C)[C@@H](OC(=O)[C@H](O)[C@@H](NC(=O)OC(C)(C)C)c4ccccc4)C[C@@](O)([C@@H](OC(=O)c4ccccc4)[C@H]21)C3(C)C [Docetaxel] + CO[C@H]1C[C@@H]2CC[C@@H](C)[C@@](O)(O2)C(=O)C(=O)N2CCCC[C@H]2C(=O)O[C@H]([C@H](C)C[C@@H]2CC[C@@H](OCCO)[C@H](OC)C2)CC(=O)[C@H](C)/C=C(\C)[C@@H](O)[C@@H](OC)C(=O)[C@H](C)C[C@H](C)/C=C/C=C/C=C/1C [everolimus] (first compound 0.0001 µM, partner dose 0.02 µM)",648,602,229,130,2180,,729,1570
"Cn1cnc2c(F)c(Nc3ccc(Br)cc3Cl)c(C(=O)NOCCO)cc21 [selumetinib] + Cn1c(=O)n(-c2ccc(C(C)(C)C#N)cc2)c2c3cc(-c4cnc5ccccc5c4)ccc3ncc21 [NVP-BEZ235] (first compound 0.015 µM, partner dose 0.004 µM)",340,154,203,184,114,206,129,569
